This note sets out measurements from patent US20020193571A1 (published 2002).

The chains behind the UniProt entries cited, without tags or fusion partners. Where a name states a change or a piece, a line headed by the entry shows the natural chain unless it says otherwise.
UniProt P48356: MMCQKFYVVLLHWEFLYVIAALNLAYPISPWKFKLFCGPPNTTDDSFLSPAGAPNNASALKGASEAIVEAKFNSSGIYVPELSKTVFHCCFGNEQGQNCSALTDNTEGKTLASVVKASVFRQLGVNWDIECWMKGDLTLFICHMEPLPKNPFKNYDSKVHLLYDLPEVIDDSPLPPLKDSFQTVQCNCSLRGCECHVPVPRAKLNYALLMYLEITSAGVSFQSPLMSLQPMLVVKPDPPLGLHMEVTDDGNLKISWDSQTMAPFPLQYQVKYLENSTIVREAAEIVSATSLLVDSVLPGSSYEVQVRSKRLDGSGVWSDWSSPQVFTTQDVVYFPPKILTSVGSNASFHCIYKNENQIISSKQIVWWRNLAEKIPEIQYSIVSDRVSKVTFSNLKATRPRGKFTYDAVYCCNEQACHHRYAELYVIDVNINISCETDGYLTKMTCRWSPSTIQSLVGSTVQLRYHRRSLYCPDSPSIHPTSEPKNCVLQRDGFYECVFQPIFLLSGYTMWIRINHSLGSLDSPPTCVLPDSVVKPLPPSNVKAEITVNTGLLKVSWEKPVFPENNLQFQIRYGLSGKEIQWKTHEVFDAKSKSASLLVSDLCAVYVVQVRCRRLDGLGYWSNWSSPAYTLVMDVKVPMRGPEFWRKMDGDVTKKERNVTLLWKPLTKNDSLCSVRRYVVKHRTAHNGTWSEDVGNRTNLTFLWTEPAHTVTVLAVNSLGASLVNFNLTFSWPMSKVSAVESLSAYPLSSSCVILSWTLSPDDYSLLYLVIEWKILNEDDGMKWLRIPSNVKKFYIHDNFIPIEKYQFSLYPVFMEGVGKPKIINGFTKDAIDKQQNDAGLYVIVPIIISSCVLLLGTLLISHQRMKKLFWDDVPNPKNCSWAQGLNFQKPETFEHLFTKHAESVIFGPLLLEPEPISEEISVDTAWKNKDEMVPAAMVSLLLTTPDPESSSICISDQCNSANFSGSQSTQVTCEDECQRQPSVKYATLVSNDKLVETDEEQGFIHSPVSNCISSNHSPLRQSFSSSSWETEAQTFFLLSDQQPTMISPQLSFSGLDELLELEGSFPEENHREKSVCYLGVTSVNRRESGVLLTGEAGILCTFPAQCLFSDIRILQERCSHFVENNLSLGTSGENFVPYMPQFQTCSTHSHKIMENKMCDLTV

This assay has as its target murine WSX receptor fused to a gD tag (murine) (UniProt P48356). Nature of the assay: capture ELISA, murine WSX receptor-gD (see Example 13). A general note: In an ELISA, binding on a coated surface is turned into a signal by an enzyme label.

Results are given in words; binding and its absence hold for the method and conditions named. Some binding calls cover weakened binding; strength is not graded here.

B1: agonist antibody clone #4 scFv (scFv)
scFv: EVQLVQSGAEVKKPGESLKISCQGSGFTFSSYKMNWVRQAPGKGLEWMGGIIPIFGTANYAQKFQGRVTITADESTSTAYMELSSLRSEDTAVYYCARDRVVVPATSLRGGMDVWGQGTTVTVSSGGGGSGGGGSGGGGSQSVLTQPASVSGSPGQSITISCTGTSSDVGGYNYVSWYQQHPGKAPKLMIYEGSKRPSGVSNRFSGSKSGSTASLTISGLQAEDEADYYCSSYTTRSTRVFGGGTKLTVL
Consider B1, for which the binding entry is “binds”.

B2: agonist antibody clone #17 scFv (scFv)
scFv: QVRLQQSGGGLVQPGRSLRLSCAASGFTFDDYAMHWVRQAPGKGLEWVSGMTWNSGSIGYADSVKGRFTISRDNAKNSLYLQMNSLRAEDTAVYYCAREPHNTDAFDIWGRGTLVTVSSGGGGPGGGGSGGGGSDVVMTQSPSFLSAFVGDTITITCRASQGIYNYLAWYQQKPGKAPKLLIYAASTLQSGVPSRFSGSGSGTEFTLTISSLQPEDFGTYYCQQLISYPLTFGGGTKVEIK
notes: Human scFv from a phage library; tested as scFv phage and as soluble scFv
For the molecule B2, the binding result was “binds”.
